# From the supplement of paper PMC12595434, “Development of retinoid nuclear receptor pathway antagonists through targeting aldehyde dehydrogenase 1A3” (iScience, 2025)
# Some of the results follow. This is a noisy data set.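 Many melting curves are irregular; where none melted, Tm was taken as 64 °C.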
# Biological target: UniProt P50993
# Assay: melting temperature shift (DMSO Tm minus MBE1-treated Tm) in cellular thermal proteome profiling; higher = less thermal stabilization by MBE1 (negative = stabilized by MBE1)
# Conditions: A375
compound,measurement,setting,value
CCc1cnccc1C(=O)Nc1cc2c(cc1F)NC(=O)CC2,melting temperature shift,MBE1 concentration: 100 nM,-1.63 °C
same,melting temperature shift,MBE1 concentration: 1 uM,-0.69 °C
